{"source": "PubChem BioAssay AID1508597 (Cure First, 2020)", "screen": "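Knock-downs altering ovarian cancer cell survival with or without PARP inhibitor rucaparib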 (primary screen)", "system": "human ovarian carcinoma lines grown from tumours: OCI-P5x (papillary serous) and OCI-C5x (clear cell)", "knock-down reagent": "siRNA pool against human genes, 1.25 pmol siRNA per well", "time to read-out": "72 h or 96 h, depending on the cell culture", "challenge": "rucaparib 20 µM (about IC30) or vehicle, present until read-out", "rucaparib or vehicle": "Rucaparib", "cell line": "OCI-C5x (clear cell)", "detection": "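ATP luminescence measured at 72 or 96 h according to the culture, then normalised and expressed as percent viability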", "direction": "viability, normalised: higher = more viable cells remaining", "call rule": "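Active when normalised viability falls below 80 percent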", "meaning of the calls": "active = viability under 80%; inactive = viability 80% or more", "note": "Shown is an unselected part of the about 2,100 reagents, under one of the conditions tested. 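Calls flag viability under 80% in either arm, not effects specific to rucaparib; the reference for percent is not stated.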 Some reagents were tested in more than one well and are listed for each. Reagent sequences are not shown. The record does not give: the 100% reference."}
{"Target gene": "BABAM2 (GeneID 9577)", "technical replicate": "1", "viability, normalised (%)": 47.7, "Outcome": "active"}
{"Target gene": "BABAM2 (GeneID 9577)", "technical replicate": "1", "viability, normalised (%)": 62, "Outcome": "active"}
{"Target gene": "BABAM2 (GeneID 9577)", "technical replicate": "2", "viability, normalised (%)": 43.9, "Outcome": "active"}
{"Target gene": "BABAM2 (GeneID 9577)", "technical replicate": "2", "viability, normalised (%)": 71.4, "Outcome": "active"}
{"Target gene": "BABAM2 (GeneID 9577)", "technical replicate": "3", "viability, normalised (%)": 40.4, "Outcome": "active"}
{"Target gene": "BABAM2 (GeneID 9577)", "technical replicate": "3", "viability, normalised (%)": 55.9, "Outcome": "active"}
{"Target gene": "NADK (GeneID 65220)", "technical replicate": "1", "viability, normalised (%)": 68.4, "Outcome": "active"}
{"Target gene": "NADK (GeneID 65220)", "technical replicate": "2", "viability, normalised (%)": 70, "Outcome": "active"}
{"Target gene": "NADK (GeneID 65220)", "technical replicate": "3", "viability, normalised (%)": 66, "Outcome": "active"}
{"Target gene": "PHKB (GeneID 5257)", "technical replicate": "1", "viability, normalised (%)": 47.1, "Outcome": "active"}
{"Target gene": "PHKB (GeneID 5257)", "technical replicate": "2", "viability, normalised (%)": 64.9, "Outcome": "active"}
{"Target gene": "PHKB (GeneID 5257)", "technical replicate": "3", "viability, normalised (%)": 60.7, "Outcome": "active"}
{"Target gene": "TK1 (GeneID 7083)", "technical replicate": "1", "viability, normalised (%)": 49.3, "Outcome": "active"}
{"Target gene": "TK1 (GeneID 7083)", "technical replicate": "1", "viability, normalised (%)": 38.2, "Outcome": "active"}
{"Target gene": "TK1 (GeneID 7083)", "technical replicate": "2", "viability, normalised (%)": 48.5, "Outcome": "active"}
{"Target gene": "TK1 (GeneID 7083)", "technical replicate": "2", "viability, normalised (%)": 51.8, "Outcome": "active"}
{"Target gene": "TK1 (GeneID 7083)", "technical replicate": "3", "viability, normalised (%)": 49.8, "Outcome": "active"}
{"Target gene": "TK1 (GeneID 7083)", "technical replicate": "3", "viability, normalised (%)": 44.2, "Outcome": "active"}
{"Target gene": "CSNK2A2 (GeneID 1459)", "technical replicate": "1", "viability, normalised (%)": 46.1, "Outcome": "active"}
{"Target gene": "CSNK2A2 (GeneID 1459)", "technical replicate": "2", "viability, normalised (%)": 41.9, "Outcome": "active"}
{"Target gene": "CSNK2A2 (GeneID 1459)", "technical replicate": "3", "viability, normalised (%)": 49.7, "Outcome": "active"}

3 of these entries, set out differently:
| Target gene | technical replicate | viability, normalised (%) | Outcome |
| --- | --- | --- | --- |
| CSNK2A2 (GeneID 1459) | 1 | 46.1 | active |
| CSNK2A2 (GeneID 1459) | 2 | 41.9 | active |
| CSNK2A2 (GeneID 1459) | 3 | 49.7 | active |
